The list shows a part of the results.
Legend:
Experiment in all cases: log2 fold change, soluble protein after heating vs DMSO (PISA); higher = thermal stabilisation; K562 cells, 10 uM, 30 min; active = over 0.2 and 3.5 SD of the protein, either way, in both replicates (recomputed)
[1] = compound: COC1=CC=C(C=C1)CN2C=CC3=C2C=C(C=C3)C(=O)NO
Method in brief: (§1)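 Quantification of soluble protein used TMTpro 16plex LC-MS/MS, with channel sums equalised. Samples were the supernatant after 21,000xg for 90 min of pooled aliquots from K562 cells (2×10^6 cells/mL) treated with 10 μM compound for 30 min, heated for 3 min over 48°C-58°C, and extracted in PBS with 0.5% NP-40 at 4°C. Values, from duplicates, describe thermal stability against control samples on a log2 fold-change scale.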

Sequences of proteins named here, by UniProt entry; tags and fusion partners are left off. A change or cut given only in a name is not applied to a line headed by its entry.
UniProt Q66K74: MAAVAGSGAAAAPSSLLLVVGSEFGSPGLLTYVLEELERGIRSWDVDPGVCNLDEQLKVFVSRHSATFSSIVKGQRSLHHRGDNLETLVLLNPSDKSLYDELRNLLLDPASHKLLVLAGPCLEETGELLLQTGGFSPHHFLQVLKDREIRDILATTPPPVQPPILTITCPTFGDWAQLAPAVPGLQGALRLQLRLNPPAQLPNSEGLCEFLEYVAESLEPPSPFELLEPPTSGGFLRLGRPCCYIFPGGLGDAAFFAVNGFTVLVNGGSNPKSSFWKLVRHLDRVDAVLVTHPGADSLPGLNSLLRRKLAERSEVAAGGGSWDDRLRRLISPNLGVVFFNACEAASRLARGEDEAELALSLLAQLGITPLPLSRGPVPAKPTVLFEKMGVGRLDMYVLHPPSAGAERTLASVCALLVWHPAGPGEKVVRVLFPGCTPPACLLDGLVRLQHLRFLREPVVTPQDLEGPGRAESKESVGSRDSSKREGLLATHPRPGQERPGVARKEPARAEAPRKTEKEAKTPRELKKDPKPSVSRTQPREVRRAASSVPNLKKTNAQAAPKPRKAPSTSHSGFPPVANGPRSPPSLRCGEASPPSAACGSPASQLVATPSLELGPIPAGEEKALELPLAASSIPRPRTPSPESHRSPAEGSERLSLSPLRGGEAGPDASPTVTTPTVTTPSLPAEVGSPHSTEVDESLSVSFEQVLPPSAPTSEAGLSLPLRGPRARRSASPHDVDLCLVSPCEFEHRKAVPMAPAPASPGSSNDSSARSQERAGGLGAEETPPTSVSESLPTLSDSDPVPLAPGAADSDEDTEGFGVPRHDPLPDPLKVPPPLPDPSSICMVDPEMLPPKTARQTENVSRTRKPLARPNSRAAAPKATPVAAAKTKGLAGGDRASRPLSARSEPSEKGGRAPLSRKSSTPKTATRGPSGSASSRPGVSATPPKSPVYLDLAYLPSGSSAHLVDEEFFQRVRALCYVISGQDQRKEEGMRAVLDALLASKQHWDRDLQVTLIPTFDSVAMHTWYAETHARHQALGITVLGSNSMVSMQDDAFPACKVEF
UniProt Q9NU23: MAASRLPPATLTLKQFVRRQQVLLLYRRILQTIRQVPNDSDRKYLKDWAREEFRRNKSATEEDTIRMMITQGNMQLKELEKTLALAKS
UniProt O43318: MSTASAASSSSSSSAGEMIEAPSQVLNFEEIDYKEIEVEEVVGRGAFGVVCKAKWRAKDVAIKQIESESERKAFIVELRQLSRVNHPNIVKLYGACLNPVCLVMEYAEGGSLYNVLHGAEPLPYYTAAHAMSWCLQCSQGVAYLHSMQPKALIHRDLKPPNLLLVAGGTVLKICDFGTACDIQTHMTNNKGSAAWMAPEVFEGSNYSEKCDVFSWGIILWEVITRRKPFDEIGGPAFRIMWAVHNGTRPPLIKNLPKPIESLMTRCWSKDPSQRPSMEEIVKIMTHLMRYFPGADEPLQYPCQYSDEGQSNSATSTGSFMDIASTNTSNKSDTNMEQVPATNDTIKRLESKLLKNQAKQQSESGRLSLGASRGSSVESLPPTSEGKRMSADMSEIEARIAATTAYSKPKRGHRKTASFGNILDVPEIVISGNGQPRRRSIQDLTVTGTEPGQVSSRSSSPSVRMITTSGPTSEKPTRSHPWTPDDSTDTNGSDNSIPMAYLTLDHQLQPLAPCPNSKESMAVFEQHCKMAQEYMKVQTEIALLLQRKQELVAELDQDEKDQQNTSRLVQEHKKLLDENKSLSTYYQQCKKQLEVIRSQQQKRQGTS
UniProt P49006: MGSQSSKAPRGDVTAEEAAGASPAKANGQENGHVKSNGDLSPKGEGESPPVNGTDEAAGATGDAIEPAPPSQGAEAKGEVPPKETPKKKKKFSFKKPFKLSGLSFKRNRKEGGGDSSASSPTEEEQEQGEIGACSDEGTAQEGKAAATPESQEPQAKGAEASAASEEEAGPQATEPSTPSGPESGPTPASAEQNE
UniProt Q8WV07: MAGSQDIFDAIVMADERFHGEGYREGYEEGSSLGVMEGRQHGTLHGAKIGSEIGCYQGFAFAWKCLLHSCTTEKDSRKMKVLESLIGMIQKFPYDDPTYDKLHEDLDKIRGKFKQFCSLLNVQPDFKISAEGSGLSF
UniProt P49137, whole entry, looked up: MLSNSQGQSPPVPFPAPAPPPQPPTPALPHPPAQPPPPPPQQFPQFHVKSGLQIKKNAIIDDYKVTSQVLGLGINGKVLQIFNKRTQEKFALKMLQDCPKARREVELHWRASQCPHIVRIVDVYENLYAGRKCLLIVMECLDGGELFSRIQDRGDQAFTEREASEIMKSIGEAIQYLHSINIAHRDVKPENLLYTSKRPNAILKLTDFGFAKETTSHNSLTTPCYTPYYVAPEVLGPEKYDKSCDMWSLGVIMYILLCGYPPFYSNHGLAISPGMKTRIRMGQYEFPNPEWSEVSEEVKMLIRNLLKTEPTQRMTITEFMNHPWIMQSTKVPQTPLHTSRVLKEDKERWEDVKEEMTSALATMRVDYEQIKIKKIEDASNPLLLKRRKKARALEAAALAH
UniProt Q13257, whole entry, looked up: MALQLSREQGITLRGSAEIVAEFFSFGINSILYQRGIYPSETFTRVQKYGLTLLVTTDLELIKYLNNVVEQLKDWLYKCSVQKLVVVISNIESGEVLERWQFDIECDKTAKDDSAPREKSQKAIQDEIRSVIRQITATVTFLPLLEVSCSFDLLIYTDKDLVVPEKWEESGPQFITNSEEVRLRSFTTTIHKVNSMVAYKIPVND
UniProt P27816: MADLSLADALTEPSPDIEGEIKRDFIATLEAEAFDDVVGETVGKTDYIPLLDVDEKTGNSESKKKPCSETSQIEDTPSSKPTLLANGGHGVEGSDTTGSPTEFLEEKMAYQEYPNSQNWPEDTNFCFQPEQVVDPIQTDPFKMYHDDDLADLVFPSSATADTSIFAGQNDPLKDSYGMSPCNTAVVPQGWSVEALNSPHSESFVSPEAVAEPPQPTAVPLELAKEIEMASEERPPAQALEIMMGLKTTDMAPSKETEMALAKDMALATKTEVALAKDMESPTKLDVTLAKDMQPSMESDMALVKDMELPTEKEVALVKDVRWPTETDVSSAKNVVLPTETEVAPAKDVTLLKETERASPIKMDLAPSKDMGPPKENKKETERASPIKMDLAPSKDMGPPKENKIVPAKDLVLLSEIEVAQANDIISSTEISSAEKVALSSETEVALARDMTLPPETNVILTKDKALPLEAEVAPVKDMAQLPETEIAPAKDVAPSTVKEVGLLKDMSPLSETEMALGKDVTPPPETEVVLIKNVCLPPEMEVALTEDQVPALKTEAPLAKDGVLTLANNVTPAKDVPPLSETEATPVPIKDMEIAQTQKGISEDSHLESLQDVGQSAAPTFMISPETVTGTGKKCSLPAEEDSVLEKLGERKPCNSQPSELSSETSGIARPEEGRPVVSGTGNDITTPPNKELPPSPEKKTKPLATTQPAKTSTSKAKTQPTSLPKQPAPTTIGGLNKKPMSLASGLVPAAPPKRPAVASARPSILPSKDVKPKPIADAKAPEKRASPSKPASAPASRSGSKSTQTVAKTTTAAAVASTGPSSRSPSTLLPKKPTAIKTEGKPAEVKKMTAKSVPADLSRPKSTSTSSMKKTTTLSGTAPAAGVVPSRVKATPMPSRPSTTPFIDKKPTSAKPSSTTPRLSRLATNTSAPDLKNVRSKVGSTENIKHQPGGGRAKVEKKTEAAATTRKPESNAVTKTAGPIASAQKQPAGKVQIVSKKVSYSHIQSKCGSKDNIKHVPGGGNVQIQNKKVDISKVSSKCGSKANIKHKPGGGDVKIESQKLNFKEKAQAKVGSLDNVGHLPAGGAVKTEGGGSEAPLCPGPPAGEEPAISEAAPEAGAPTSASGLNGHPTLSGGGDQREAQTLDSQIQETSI
UniProt P07948: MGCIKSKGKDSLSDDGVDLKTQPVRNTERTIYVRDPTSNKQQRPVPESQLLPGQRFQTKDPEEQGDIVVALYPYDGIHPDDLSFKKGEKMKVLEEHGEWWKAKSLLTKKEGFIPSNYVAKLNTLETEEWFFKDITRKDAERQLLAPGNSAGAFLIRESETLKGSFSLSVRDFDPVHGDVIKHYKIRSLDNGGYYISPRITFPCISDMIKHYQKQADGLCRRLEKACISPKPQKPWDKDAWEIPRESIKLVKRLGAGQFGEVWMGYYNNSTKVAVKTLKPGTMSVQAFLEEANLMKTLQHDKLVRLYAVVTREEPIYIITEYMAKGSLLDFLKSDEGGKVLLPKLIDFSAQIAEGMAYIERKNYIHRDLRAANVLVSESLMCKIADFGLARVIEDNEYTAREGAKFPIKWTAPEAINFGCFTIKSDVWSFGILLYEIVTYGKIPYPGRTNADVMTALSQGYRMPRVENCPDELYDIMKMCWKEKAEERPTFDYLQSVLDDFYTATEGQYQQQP
UniProt Q16644, whole entry, looked up: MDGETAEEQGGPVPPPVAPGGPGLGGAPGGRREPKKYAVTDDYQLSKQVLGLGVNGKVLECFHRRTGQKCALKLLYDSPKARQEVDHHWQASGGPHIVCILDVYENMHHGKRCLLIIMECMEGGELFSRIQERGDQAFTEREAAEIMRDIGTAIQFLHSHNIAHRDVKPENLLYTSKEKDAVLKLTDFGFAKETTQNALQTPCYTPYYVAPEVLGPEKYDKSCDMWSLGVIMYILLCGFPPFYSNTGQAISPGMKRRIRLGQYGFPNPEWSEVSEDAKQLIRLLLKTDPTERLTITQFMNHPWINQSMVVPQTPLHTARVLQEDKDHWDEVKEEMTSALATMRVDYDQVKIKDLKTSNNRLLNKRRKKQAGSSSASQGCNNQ
UniProt Q9Y6R4: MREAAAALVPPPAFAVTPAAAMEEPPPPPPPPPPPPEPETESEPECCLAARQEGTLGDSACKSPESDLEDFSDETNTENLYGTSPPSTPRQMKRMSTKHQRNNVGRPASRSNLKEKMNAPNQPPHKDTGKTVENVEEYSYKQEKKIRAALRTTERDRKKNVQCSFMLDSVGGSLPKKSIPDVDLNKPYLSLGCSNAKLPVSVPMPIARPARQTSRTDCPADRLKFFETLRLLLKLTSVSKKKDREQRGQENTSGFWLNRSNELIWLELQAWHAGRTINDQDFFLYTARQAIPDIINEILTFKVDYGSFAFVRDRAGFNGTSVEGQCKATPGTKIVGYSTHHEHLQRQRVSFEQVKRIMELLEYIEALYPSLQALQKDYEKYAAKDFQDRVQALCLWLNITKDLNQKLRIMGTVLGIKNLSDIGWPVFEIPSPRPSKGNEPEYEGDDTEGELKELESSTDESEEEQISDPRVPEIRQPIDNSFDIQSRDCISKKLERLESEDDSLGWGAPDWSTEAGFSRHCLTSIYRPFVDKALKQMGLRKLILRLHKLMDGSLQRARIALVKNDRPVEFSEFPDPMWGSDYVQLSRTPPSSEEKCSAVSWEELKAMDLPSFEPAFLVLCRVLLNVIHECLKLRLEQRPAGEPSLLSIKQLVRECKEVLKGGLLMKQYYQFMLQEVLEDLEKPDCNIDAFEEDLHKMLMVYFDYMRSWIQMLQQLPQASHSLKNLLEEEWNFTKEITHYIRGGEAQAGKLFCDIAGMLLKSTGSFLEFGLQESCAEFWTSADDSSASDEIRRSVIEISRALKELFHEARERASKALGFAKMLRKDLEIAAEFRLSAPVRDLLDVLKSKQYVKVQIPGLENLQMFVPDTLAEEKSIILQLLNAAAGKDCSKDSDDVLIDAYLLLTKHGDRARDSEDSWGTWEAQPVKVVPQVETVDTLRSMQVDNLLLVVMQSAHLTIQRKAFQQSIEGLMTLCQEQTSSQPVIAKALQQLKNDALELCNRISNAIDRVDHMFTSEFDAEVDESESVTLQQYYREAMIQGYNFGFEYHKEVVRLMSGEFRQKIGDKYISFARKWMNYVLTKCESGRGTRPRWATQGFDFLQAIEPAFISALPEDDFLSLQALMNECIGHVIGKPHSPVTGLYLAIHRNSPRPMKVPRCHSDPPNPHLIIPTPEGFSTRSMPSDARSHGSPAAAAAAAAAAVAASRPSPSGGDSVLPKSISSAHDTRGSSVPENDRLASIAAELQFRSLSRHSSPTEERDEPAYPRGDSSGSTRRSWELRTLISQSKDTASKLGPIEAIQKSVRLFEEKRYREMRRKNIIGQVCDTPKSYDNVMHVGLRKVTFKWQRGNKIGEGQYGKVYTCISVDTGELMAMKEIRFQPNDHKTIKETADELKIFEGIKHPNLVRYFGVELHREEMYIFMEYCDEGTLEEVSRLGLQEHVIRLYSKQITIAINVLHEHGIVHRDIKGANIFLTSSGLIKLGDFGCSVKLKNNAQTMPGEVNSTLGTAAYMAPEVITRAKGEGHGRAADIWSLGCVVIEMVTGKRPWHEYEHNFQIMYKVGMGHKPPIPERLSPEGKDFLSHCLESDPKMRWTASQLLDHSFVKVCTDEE

filanesib = compound: CON(C)C(=O)N1N=C(c2cc(F)ccc2F)S[C@@]1(CCCN)c1ccccc1 [filanesib]
Method in brief: as §1

zotarolimus = compound: CO[C@H]1C[C@@H]2CC[C@@H](C)[C@@](O)(O2)C(=O)C(=O)N2CCCC[C@H]2C(=O)O[C@H]([C@H](C)C[C@@H]2CC[C@H](n3cnnn3)[C@H](OC)C2)CC(=O)[C@H](C)/C=C(\C)[C@@H](O)[C@@H](OC)C(=O)[C@H](C)C[C@H](C)/C=C/C=C/C=C/1C [zotarolimus]
Method in brief: as §1

idasanutlin = compound: COc1cc(C(=O)O)ccc1NC(=O)[C@@H]1N[C@@H](CC(C)(C)C)[C@](C#N)(c2ccc(Cl)cc2F)[C@H]1c1cccc(Cl)c1F [idasanutlin]
Method in brief: as §1

alisertib = compound: COc1cc(Nc2ncc3c(n2)-c2ccc(Cl)cc2C(c2c(F)cccc2OC)=NC3)ccc1C(=O)O [alisertib]
Method in brief: as §1

[2] = compound: COc1cc2nc(-c3cc(F)ccc3O)nc(N[C@@H]3CNC[C@H]3C(C)(C)O)c2cc1OC
Method in brief: as §1

gefitinib = compound: COc1cc2ncnc(Nc3ccc(F)c(Cl)c3)c2cc1OCCCN1CCOCC1 [gefitinib]
Method in brief: as §1

[3] = compound: COc1cccc2cc(-c3nc([C@H]4CC[C@H](C(=O)O)CC4)n4ncnc(N)c34)[nH]c12
Method in brief: as §1

lapatinib = compound: CS(=O)(=O)CCNCc1ccc(-c2ccc3ncnc(Nc4ccc(OCc5cccc(F)c5)c(Cl)c4)c3c2)o1 [lapatinib]
Method in brief: as §1

pictilisib = compound: CS(=O)(=O)N1CCN(Cc2cc3nc(-c4cccc5[nH]ncc45)nc(N4CCOCC4)c3s2)CC1 [pictilisib]
Method in brief: as §1

[4] = compound: CS(=O)(=O)c1ccc(-c2cnc(N)c(C(=O)Nc3ccccc3)n2)cc1
Method in brief: as §1

crizotinib = compound: C[C@@H](Oc1cc(-c2cnn(C3CCNCC3)c2)cnc1N)c1c(Cl)ccc(F)c1Cl [crizotinib]
Method in brief: as §1

[5] = compound: C[C@@H]1COCCN1C2=NC(=NC(=C2)C3(CC3)S(=O)(=O)C)C4=C5C=CNC5=CC=C4
Method in brief: as §1

[6] = compound: C[C@H](C1=CC=C(C=C1)C(=O)NC2=C3C=CNC3=NC=C2)N
Method in brief: as §1

duvelisib = compound: C[C@H](Nc1ncnc2nc[nH]c12)c1cc2cccc(Cl)c2c(=O)n1-c1ccccc1 [duvelisib]
Method in brief: as §1

gandotinib = compound: Cc1cc(Nc2cc(CN3CCOCC3)c3nc(C)c(Cc4ccc(Cl)cc4F)n3n2)n[nH]1 [gandotinib]
Method in brief: as §1

tozasertib = compound: Cc1cc(Nc2cc(N3CCN(C)CC3)nc(Sc3ccc(NC(=O)C4CC4)cc3)n2)n[nH]1 [tozasertib]
Method in brief: as §1

[7] = compound: Cc1cc(SCc2sc(-c3ccc(C(F)(F)F)cc3)nc2C)ccc1OCC(=O)O
Method in brief: as §1

doramapimod = compound: Cc1ccc(-n2nc(C(C)(C)C)cc2NC(=O)Nc2ccc(OCCN3CCOCC3)c3ccccc23)cc1 [doramapimod]
Method in brief: as §1

ispinesib = compound: Cc1ccc(C(=O)N(CCCN)[C@@H](c2nc3cc(Cl)ccc3c(=O)n2Cc2ccccc2)C(C)C)cc1 [ispinesib]
Method in brief: as §1

Row | Target | log2 fold change [1] | log2 fold change (filanesib) | log2 fold change (zotarolimus) | log2 fold change (idasanutlin) | log2 fold change (alisertib) | log2 fold change [2] | log2 fold change (gefitinib) | log2 fold change [3] | log2 fold change (lapatinib) | log2 fold change (pictilisib) | log2 fold change [4] | log2 fold change (crizotinib) | log2 fold change [5] | log2 fold change [6] | log2 fold change (duvelisib) | log2 fold change (gandotinib) | log2 fold change (tozasertib) | log2 fold change [7] | log2 fold change (doramapimod) | log2 fold change (ispinesib)
1 | MAP1S (UniProt Q66K74) | inactive: -0.013 | inactive: 0.037 | inactive: 0.038 | inactive: -0.034 | inactive: -0.089 | inactive: 0.027 | inactive: -0.009 | inactive: -0.066 | inactive: 0.02 | inactive: 0.018 | inactive: 0.033 | inactive: -0.093 | inactive: -0.081 | inactive: -0.025 | inactive: -0.012 | inactive: -0.024 | inactive: 0.018 | inactive: 0.067 | inactive: -0.011 | inactive: -0.048
2 | MAP7D1 (UniProt Q3KQU3) | inactive: -0.062 | inactive: 0.291 | inactive: -0.046 | inactive: 0.252 | inactive: 0.164 | inactive: 0.002 | inactive: -0.144 | inactive: -0.171 | inactive: 0.011 | inactive: -0.147 | inactive: 0.034 | inactive: -0.075 | inactive: -0.458 | inactive: 0.414 | inactive: -0.141 | inactive: 0.261 | inactive: 0.023 | inactive: 0.01 | inactive: 0.261 | inactive: -0.173
3 | LYRM2 (UniProt Q9NU23) | inactive: 0.032 | inactive: -0.061 | inactive: -0.014 | inactive: -0.019 | inactive: -0.101 | inactive: 0.083 | inactive: 0.021 | inactive: 0.071 | inactive: -0.247 | inactive: -0.003 | inactive: -0.058 | inactive: 0.067 | inactive: 0.117 | inactive: -0.078 | inactive: 0.041 | inactive: 0.002 | inactive: 0 | inactive: -0.005 | inactive: -0.011 | inactive: 0.077
4 | MACF1 (UniProt Q9UPN3) | inactive: 0.021 | inactive: 0.106 | inactive: 0.056 | inactive: 0.085 | inactive: -0.006 | inactive: -0.018 | inactive: 0.038 | inactive: -0.107 | inactive: 0.099 | inactive: 0.043 | inactive: -0.041 | inactive: -0.038 | inactive: -0.059 | inactive: 0.115 | inactive: 0 | inactive: -0.061 | inactive: 0.038 | inactive: 0.08 | inactive: 0.091 | inactive: -0.131
5 | MAP3K7 (UniProt O43318) | inactive: 0.105 | inactive: 0.026 | inactive: -0.074 | inactive: -0.03 | inactive: 0.084 | inactive: 0.065 | inactive: 0.016 | inactive: -0.054 | inactive: -0.058 | inactive: 0.088 | inactive: 0.093 | inactive: -0.193 | inactive: -0.035 | inactive: 0.135 | – | inactive: -0.036 | – | inactive: 0.118 | inactive: -0.001 | inactive: -0.029
6 | MARCKSL1 (UniProt P49006) | inactive: -0.074 | inactive: 0.002 | inactive: -0.033 | inactive: -0.011 | inactive: -0.093 | inactive: 0.073 | inactive: -0.027 | inactive: 0.028 | inactive: -0.061 | inactive: 0.026 | inactive: 0.032 | inactive: 0.09 | inactive: -0.006 | inactive: -0.094 | – | inactive: -0.006 | – | inactive: -0.074 | inactive: -0.047 | inactive: 0.071
7 | LTO1 (UniProt Q8WV07) | inactive: -0.06 | inactive: -0.06 | inactive: 0.062 | inactive: -0.093 | inactive: 0.118 | inactive: 0.036 | inactive: 0.017 | inactive: -0.001 | inactive: -0.016 | inactive: 0.038 | inactive: 0.011 | inactive: 0.048 | inactive: -0.083 | inactive: -0.063 | – | inactive: -0.026 | – | inactive: -0.042 | inactive: 0.032 | inactive: 0.051
8 | MAPKAPK2 (UniProt P49137) | inactive: 0.066 | inactive: -0.06 | inactive: -0.012 | inactive: -0.054 | inactive: -0.03 | inactive: 0.118 | inactive: 0.11 | inactive: 0.01 | inactive: -0.025 | inactive: 0.023 | inactive: -0.032 | inactive: -0.082 | inactive: 0.035 | inactive: -0.019 | – | inactive: -0.066 | – | inactive: 0.006 | inactive: 0.147 | inactive: -0.003
9 | MAD2L1 (UniProt Q13257) | inactive: -0.024 | inactive: -0.042 | inactive: 0.034 | inactive: -0.12 | inactive: -0.003 | inactive: 0.048 | inactive: 0.008 | inactive: 0.01 | inactive: -0.064 | inactive: 0.024 | inactive: 0.02 | inactive: -0.076 | inactive: 0.092 | inactive: -0.004 | – | inactive: -0.139 | – | inactive: 0.037 | inactive: 0.034 | inactive: -0.023
10 | MAP4 (UniProt P27816) | inactive: -0.002 | inactive: 0.022 | inactive: -0.029 | inactive: 0.028 | inactive: -0.034 | inactive: -0.027 | inactive: -0.019 | inactive: -0.003 | inactive: -0.002 | inactive: -0.078 | inactive: -0.004 | inactive: 0.012 | inactive: -0.025 | inactive: -0.035 | – | inactive: 0.006 | – | inactive: -0.051 | inactive: 0.008 | inactive: -0.014
11 | MARK3 (UniProt P27448) | inactive: 0.008 | inactive: 0.054 | inactive: 0.062 | inactive: 0.091 | inactive: 0.05 | inactive: -0.219 | inactive: -0.002 | inactive: -0.063 | inactive: 0.022 | inactive: -0.033 | inactive: -0.042 | active: -0.394 | inactive: -0.039 | inactive: 0.063 | – | inactive: -0.194 | – | inactive: 0.089 | inactive: 0.073 | inactive: -0.173
12 | LYN (UniProt P07948) | inactive: -0.074 | inactive: 0.021 | inactive: 0.07 | inactive: -0.01 | inactive: 0.002 | inactive: 0.259 | inactive: -0.036 | inactive: 0.081 | inactive: 0.011 | inactive: 0.112 | inactive: -0.023 | inactive: -0.142 | inactive: -0.101 | inactive: -0.01 | – | inactive: -0.015 | – | inactive: 0.132 | inactive: 0.065 | inactive: -0.094
13 | MAPKAPK3 (UniProt Q16644) | inactive: -0.146 | inactive: 0 | inactive: -0.034 | inactive: -0.088 | inactive: 0.018 | inactive: 0.037 | inactive: 0.27 | inactive: 0.01 | inactive: -0.065 | inactive: 0.039 | inactive: -0.033 | inactive: -0.078 | inactive: 0.048 | inactive: 0.115 | – | inactive: -0.043 | – | inactive: -0.021 | inactive: 0.314 | inactive: -0.111
14 | LRRFIP1 (UniProt Q32MZ4) | inactive: -0.014 | inactive: 0.022 | inactive: -0.034 | inactive: 0.019 | inactive: -0.031 | inactive: 0.023 | inactive: -0.007 | inactive: 0.025 | inactive: -0.012 | inactive: -0.027 | inactive: -0.005 | inactive: 0.037 | inactive: 0 | inactive: 0.025 | – | inactive: 0.056 | – | inactive: -0.059 | inactive: -0.025 | inactive: -0.019
15 | MAP4 (UniProt E7EVA0) | inactive: -0.027 | inactive: 0.216 | inactive: -0.1 | inactive: 0.023 | inactive: -0.094 | inactive: -0.134 | inactive: 0.109 | inactive: -0.024 | inactive: 0.186 | inactive: 0.019 | inactive: 0.023 | inactive: -0.02 | inactive: -0.222 | inactive: 0.231 | – | inactive: -0.001 | – | inactive: -0.017 | inactive: 0.136 | inactive: -0.134
16 | MAP3K4 isoform 2 (UniProt Q9Y6R4) | inactive: 0.004 | inactive: -0.037 | inactive: 0.003 | inactive: -0.023 | inactive: -0.043 | inactive: 0.03 | inactive: 0.034 | inactive: 0.086 | inactive: 0.024 | inactive: 0.11 | inactive: 0.012 | active: -0.256 | inactive: 0.042 | inactive: -0.017 | – | inactive: -0.054 | – | inactive: 0 | inactive: 0.02 | inactive: 0.021
17 | MAGEA9 (UniProt P43362) | inactive: -0.246 | inactive: 0.003 | inactive: 0.015 | inactive: 0.087 | inactive: 0.057 | inactive: 0.024 | inactive: 0.034 | inactive: 0.033 | inactive: -0.018 | inactive: -0.018 | inactive: 0.005 | inactive: 0.008 | inactive: 0.082 | inactive: -0.028 | – | inactive: -0.095 | – | inactive: -0.029 | inactive: 0 | inactive: -0.001

Excerpt: nos. 11–12
Row | Target | log2 fold change [1] | log2 fold change (filanesib) | log2 fold change (zotarolimus) | log2 fold change (idasanutlin) | log2 fold change (alisertib) | log2 fold change [2] | log2 fold change (gefitinib) | log2 fold change [3] | log2 fold change (lapatinib) | log2 fold change (pictilisib) | log2 fold change [4] | log2 fold change (crizotinib) | log2 fold change [5] | log2 fold change [6] | log2 fold change (duvelisib) | log2 fold change (gandotinib) | log2 fold change (tozasertib) | log2 fold change [7] | log2 fold change (doramapimod) | log2 fold change (ispinesib)
11 | MARK3 (UniProt P27448) | inactive: 0.008 | inactive: 0.054 | inactive: 0.062 | inactive: 0.091 | inactive: 0.05 | inactive: -0.219 | inactive: -0.002 | inactive: -0.063 | inactive: 0.022 | inactive: -0.033 | inactive: -0.042 | active: -0.394 | inactive: -0.039 | inactive: 0.063 | – | inactive: -0.194 | – | inactive: 0.089 | inactive: 0.073 | inactive: -0.173
12 | LYN (UniProt P07948) | inactive: -0.074 | inactive: 0.021 | inactive: 0.07 | inactive: -0.01 | inactive: 0.002 | inactive: 0.259 | inactive: -0.036 | inactive: 0.081 | inactive: 0.011 | inactive: 0.112 | inactive: -0.023 | inactive: -0.142 | inactive: -0.101 | inactive: -0.01 | – | inactive: -0.015 | – | inactive: 0.132 | inactive: 0.065 | inactive: -0.094
